Laboratory results taken from US11180484B2, “Pyrazole derivatives as plasma kallikrein inhibitors” (KALVISTA PHARMACEUTICALS LIMITED, priority 2016, dated 2021).

Protein sequences, listed by entry. Tags and fused reporters are not part of them. Residues count along the entry.
UniProt P06870, 25-262: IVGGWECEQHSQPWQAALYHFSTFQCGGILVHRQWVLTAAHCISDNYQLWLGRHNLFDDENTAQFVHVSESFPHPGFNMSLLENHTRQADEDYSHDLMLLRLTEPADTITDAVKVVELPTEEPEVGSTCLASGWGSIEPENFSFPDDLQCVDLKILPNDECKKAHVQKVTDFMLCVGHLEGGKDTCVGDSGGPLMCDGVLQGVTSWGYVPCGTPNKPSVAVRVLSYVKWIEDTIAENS

Target: Human KLK1 (Homo sapiens (Human), UniProt P06870)
Assay: Determination of the IC50 for KLK1
Format: biochemical
Conditions: 25° C., substrate H-DVal-Leu-Arg-AFC
Protocol: KLK1 inhibitory activity in vitro was determined using standard published methods (see e.g. Johansen et al., Int. J. Tiss. Reac. 1986, 8, 185; Shori et al., Biochem. Pharmacol., 1992, 43, 1209; Sturzebecher et al., Biol. Chem. Hoppe-Seyler, 1992, 373, 1025). Human KLK1 (Callbiochem) was incubated at 25° C. with the fluorogenic substrate H-DVal-Leu-Arg-AFC and various concentrations of the test compound. Residual enzyme activity (initial rate of reaction) was determined by measuring the change in […] at 410 nm and the IC50 value for the test compound was determined.

Structure (SMILES): COCc1nn(Cc2ccc(Cn3ccccc3=O)cc2)cc1C(=O)NCc1c(F)ccc(OC)c1C(F)F [Reference Example F, 3-Methoxymethyl-1-[4-(2-oxo-2H-pyridin-1-ylmethyl)-benzyl]-1H-pyrazole-4-carboxylic acid 2-difluoromethyl-6-fluoro-3-methoxy-benzylamide, reference compound]
- IC50: > 40 µM
